Assay results reported in the supplement of paper PMC6411743.
± gives the standard deviation of the averaged measurements. The list shows a part of the results.

Chains of the proteins cited; added tags and fusions are not shown. Lines headed by an entry give the natural chain unless they say otherwise; changes in a name come on top.
UniProt Q969Z0: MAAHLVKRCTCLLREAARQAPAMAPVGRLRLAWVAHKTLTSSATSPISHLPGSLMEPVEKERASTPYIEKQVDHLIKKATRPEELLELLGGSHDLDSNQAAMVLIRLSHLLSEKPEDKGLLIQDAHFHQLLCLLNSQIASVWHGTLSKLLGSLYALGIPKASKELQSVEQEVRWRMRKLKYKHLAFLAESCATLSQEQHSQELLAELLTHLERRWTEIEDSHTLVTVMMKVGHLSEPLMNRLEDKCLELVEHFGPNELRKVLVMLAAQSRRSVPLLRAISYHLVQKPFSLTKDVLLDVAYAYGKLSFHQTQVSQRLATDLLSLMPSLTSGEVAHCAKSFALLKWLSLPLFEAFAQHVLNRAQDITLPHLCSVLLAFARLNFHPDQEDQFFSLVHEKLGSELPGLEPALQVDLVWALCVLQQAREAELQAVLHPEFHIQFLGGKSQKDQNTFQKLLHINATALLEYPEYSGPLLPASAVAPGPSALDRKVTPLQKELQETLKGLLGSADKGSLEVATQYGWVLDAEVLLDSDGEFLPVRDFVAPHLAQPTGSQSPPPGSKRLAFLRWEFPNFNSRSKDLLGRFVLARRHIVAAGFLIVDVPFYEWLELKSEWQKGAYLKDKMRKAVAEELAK
UniProt Q96DI7: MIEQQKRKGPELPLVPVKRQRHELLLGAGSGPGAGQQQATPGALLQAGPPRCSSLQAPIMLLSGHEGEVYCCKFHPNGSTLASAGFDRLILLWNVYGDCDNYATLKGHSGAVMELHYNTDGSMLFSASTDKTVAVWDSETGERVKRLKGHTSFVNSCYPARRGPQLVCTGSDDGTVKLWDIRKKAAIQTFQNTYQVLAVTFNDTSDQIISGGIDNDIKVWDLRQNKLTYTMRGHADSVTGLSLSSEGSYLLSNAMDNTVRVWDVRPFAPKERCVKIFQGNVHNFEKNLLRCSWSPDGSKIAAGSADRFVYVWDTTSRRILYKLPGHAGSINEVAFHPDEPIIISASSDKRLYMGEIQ
UniProt Q8WVM8, whole entry, looked up: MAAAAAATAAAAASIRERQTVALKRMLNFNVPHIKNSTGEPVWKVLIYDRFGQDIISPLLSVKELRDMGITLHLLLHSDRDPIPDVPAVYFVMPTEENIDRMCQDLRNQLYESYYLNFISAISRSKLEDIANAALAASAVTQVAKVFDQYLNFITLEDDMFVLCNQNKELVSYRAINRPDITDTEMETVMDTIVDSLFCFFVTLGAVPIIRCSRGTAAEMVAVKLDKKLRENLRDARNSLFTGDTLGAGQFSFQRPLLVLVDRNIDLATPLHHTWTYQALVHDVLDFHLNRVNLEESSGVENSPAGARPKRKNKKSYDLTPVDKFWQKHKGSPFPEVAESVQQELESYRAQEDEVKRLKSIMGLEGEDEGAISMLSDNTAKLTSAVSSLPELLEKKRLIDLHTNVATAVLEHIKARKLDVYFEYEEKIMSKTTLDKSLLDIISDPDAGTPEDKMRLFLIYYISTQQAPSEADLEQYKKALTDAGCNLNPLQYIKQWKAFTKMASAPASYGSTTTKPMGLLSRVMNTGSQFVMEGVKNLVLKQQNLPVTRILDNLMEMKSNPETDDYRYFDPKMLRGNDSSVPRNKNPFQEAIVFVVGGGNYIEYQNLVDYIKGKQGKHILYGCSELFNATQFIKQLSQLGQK
UniProt Q96FX2: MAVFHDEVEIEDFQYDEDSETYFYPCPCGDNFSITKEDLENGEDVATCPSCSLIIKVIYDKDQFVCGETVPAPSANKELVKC
UniProt Q96GK7: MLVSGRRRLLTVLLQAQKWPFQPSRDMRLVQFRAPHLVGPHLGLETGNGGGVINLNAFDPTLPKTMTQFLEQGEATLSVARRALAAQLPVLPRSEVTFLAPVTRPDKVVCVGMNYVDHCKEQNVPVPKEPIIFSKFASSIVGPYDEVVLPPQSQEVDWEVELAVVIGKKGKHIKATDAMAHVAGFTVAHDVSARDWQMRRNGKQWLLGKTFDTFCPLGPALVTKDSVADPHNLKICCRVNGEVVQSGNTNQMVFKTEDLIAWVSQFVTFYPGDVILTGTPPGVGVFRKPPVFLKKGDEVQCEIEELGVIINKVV
UniProt Q96DZ1: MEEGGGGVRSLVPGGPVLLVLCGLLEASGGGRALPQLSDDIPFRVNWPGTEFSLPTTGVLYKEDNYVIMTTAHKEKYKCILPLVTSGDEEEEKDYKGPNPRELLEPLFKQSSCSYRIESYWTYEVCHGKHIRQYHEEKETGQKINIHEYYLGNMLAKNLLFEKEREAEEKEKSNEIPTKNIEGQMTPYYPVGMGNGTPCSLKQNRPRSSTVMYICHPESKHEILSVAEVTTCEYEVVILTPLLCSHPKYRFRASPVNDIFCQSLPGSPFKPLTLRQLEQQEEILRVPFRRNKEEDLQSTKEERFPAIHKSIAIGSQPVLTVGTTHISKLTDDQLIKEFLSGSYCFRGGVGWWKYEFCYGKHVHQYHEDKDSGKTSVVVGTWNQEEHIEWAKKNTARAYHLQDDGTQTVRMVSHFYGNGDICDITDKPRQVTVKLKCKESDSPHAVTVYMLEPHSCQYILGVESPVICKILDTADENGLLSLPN
UniProt Q96BP3: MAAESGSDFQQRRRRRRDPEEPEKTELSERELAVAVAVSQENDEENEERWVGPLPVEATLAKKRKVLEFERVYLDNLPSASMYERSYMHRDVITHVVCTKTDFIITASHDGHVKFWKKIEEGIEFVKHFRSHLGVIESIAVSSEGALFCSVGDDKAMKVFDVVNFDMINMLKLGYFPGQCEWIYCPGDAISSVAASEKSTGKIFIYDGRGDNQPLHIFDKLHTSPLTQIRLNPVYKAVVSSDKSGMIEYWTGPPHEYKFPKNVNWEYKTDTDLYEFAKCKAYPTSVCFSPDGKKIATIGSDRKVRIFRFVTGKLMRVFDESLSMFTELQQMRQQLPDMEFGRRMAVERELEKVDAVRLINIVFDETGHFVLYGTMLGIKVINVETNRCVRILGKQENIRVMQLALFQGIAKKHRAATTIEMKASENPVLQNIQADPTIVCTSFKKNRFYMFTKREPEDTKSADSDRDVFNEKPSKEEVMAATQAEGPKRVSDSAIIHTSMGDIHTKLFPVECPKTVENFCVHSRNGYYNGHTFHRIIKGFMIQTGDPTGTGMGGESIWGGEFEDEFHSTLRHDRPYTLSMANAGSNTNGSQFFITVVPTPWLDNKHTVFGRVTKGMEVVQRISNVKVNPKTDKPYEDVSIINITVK
UniProt Q8WY54: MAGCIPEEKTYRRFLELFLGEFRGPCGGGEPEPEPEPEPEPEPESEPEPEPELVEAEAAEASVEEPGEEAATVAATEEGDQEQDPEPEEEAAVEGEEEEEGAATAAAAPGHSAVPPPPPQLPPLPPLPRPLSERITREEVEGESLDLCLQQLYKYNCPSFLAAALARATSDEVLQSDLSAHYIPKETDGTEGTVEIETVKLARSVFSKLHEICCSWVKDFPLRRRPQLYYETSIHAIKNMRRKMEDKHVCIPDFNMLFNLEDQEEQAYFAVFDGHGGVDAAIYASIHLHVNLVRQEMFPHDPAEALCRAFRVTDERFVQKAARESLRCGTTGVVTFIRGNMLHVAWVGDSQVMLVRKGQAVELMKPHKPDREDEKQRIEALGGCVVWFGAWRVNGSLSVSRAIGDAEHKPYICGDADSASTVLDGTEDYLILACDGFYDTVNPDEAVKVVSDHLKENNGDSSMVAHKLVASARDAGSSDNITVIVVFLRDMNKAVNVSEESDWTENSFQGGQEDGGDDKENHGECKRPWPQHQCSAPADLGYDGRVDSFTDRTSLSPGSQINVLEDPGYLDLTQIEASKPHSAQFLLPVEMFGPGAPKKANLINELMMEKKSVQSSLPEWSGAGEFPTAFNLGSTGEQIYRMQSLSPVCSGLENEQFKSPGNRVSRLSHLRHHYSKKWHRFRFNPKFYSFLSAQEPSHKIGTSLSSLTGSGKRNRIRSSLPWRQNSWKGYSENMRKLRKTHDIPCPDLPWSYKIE
UniProt Q92636: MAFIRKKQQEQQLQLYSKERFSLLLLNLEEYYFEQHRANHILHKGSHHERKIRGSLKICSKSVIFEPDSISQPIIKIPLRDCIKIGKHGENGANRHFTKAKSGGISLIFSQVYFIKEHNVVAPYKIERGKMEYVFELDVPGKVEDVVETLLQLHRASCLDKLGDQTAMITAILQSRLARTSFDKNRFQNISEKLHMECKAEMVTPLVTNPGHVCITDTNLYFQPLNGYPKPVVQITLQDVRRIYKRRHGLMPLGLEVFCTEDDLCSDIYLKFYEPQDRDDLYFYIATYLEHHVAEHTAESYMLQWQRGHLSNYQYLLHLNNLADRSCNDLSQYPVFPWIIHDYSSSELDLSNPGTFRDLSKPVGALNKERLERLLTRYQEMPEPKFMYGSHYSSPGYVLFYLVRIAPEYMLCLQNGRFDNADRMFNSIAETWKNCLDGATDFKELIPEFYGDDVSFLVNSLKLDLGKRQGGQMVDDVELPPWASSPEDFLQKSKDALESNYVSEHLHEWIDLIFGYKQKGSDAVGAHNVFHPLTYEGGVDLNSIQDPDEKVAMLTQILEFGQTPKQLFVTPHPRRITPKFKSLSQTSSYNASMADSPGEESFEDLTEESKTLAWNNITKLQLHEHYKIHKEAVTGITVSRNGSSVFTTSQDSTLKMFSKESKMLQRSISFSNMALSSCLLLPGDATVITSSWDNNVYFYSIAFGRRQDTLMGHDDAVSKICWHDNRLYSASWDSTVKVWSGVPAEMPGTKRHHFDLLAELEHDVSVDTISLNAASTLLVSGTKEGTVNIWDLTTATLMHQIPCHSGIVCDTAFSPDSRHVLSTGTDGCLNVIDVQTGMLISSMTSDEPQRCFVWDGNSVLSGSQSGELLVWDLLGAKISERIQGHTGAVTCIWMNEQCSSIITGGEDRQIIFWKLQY
UniProt Q8WXD5: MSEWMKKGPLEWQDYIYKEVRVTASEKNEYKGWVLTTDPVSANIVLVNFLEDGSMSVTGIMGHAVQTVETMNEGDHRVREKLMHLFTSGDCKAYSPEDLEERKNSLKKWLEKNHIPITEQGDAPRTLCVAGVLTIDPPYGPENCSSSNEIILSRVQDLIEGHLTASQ
UniProt Q92979: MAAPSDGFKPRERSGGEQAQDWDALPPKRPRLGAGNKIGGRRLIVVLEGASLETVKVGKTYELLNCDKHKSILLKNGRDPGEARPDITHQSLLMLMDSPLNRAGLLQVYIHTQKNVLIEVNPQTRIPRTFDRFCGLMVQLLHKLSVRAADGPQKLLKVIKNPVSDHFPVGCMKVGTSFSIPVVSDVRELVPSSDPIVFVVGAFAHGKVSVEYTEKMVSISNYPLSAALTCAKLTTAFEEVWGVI
UniProt Q96AQ6: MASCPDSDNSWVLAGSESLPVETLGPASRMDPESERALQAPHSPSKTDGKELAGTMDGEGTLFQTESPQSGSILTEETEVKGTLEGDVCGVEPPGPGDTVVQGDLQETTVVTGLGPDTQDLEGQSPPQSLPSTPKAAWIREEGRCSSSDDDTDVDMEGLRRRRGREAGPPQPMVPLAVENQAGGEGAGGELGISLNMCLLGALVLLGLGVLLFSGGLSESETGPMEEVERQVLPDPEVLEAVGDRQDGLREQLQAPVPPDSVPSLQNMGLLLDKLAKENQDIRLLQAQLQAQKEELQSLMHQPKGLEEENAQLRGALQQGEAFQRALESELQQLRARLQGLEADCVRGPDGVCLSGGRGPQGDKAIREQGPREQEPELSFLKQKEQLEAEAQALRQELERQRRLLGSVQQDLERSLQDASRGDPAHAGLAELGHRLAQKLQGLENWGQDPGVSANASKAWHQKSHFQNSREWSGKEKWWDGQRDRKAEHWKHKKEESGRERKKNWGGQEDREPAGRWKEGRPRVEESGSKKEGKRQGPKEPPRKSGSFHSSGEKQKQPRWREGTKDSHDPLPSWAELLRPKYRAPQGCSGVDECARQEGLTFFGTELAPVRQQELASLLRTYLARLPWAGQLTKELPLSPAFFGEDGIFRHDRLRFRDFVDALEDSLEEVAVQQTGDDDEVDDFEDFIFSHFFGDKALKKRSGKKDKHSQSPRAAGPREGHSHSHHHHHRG
UniProt Q96AG3: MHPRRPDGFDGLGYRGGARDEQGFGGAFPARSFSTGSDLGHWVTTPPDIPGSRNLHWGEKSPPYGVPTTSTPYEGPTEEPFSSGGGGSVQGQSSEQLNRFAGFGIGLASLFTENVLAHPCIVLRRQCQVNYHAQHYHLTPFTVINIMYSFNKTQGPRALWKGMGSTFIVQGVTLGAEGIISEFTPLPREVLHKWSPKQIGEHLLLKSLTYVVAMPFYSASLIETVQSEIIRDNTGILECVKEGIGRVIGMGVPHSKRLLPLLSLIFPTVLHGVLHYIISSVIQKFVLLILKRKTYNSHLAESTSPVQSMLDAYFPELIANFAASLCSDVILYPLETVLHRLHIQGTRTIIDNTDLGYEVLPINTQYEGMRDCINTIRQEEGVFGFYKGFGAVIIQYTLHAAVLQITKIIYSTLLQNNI
UniProt Q8WUR7: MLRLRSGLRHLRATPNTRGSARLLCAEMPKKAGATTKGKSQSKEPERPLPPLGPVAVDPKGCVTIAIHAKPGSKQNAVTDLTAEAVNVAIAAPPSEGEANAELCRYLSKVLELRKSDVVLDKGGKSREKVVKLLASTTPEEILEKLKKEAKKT

Compound: Nc1nc2c(ncn2[C@@H]2O[C@H](COP(=O)(O)OP(=O)(O)OP(=O)(O)O)[C@@H](O)[C@H]2O)c(=O)[nH]1 [guanosine triphosphate]
Test: NP40-soluble protein abundance relative to vehicle (solubility fold change) (ratio); higher = more soluble protein in presence of GTP
Summary of the method: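 In three independent experiments, Jurkat crude lysate made by Dounce homogenisation was treated for 10 min at room temperature and then 3 min at 37 °C with eight concentrations ranging from 0.1 to 10 mM. It was then solubilised with 0.8% NP40 plus benzonase for 60 min at 4 °C and ultracentrifuged. The supernatant was TMT-labelled for LC-MS/MS, and each value is the fold change against the detergent-processed vehicle for the same replicate, using vsn-normalised intensities.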

Target	NP40-soluble protein abundance (concentration: 0.1mM)	NP40-soluble protein abundance (concentration: 0.5mM)	NP40-soluble protein abundance (concentration: 1mM)	NP40-soluble protein abundance (concentration: 2mM)	NP40-soluble protein abundance (concentration: 4mM)	NP40-soluble protein abundance (concentration: 6mM)	NP40-soluble protein abundance (concentration: 8mM)	NP40-soluble protein abundance (concentration: 10mM)
TBRG4 (UniProt Q969Z0)	0.97 ± 0.033	0.994 ± 0.016	0.954 ± 0.041	0.945 ± 0.038	0.948 ± 0.049	0.915 ± 0.03	0.917 ± 0.045	0.918 ± 0.087
UniProt Q96DI7 and related entries	1.1 ± 0.14	1.12 ± 0.14	1.18 ± 0.15	1.24 ± 0.15	1.42 ± 0.26	1.48 ± 0.26	1.65 ± 0.38	1.65 ± 0.39
UniProt Q96BW9 and related entries	1.05 ± 0.047	1.06 ± 0.036	1 ± 0.057	1.09 ± 0.013	1.024 ± 0.0028	1.01 ± 0.038	0.92 ± 0.016	0.909 ± 0.015
SCFD1 (UniProt Q8WVM8)	1.08 ± 0.066	1.04 ± 0.05	1.04 ± 0.076	1.01 ± 0.053	0.981 ± 0.027	0.958 ± 0.047	0.933 ± 0.01	0.9325 ± 0.0018
PHIP (UniProt Q8WWQ0)	1.02 ± 0.06	1.05 ± 0.037	1.11 ± 0.053	1.11 ± 0.014	1.15 ± 0.086	1.14 ± 0.035	1.19 ± 0.062	1.23 ± 0.15
UniProt Q96B01 and related entries	0.9 ± 0.07	0.902 ± 0.078	0.922 ± 0.12	0.97 ± 0.096	0.942 ± 0.15	1.02 ± 0.13	1.02 ± 0.13	1.03 ± 0.1
DPH3 (UniProt Q96FX2)	0.8598 ± 0.0067	0.911 ± 0.16	0.728 ± 0.012	0.925 ± 0.15	0.878 ± 0.075	0.886 ± 0.15	0.869 ± 0.063	0.978 ± 0.17
FAHD2A (UniProt Q96GK7)	1.12 ± 0.13	1.04 ± 0.077	0.951 ± 0.078	0.926 ± 0.08	0.981 ± 0.087	0.981 ± 0.066	0.989 ± 0.13	0.872 ± 0.055
UniProt Q96DZ1 and related entries	1.01 ± 0.027	1 ± 0.023	0.996 ± 0.036	1.02 ± 0.017	0.995 ± 0.025	0.978 ± 0.015	1.01 ± 0.058	0.963 ± 0.012
PPWD1 (UniProt Q96BP3)	1.05 ± 0.074	1.03 ± 0.042	0.989 ± 0.074	1.08 ± 0.12	1.14 ± 0.12	1.13 ± 0.084	1.12 ± 0.074	1.17 ± 0.16
UniProt Q8WY54 and related entries	0.968 ± 0.28	0.963 ± 0.12	0.963 ± 0.24	1.08 ± 0.29	0.956 ± 0.28	0.908 ± 0.25	0.869 ± 0.32	0.981 ± 0.29
UniProt Q92636 and related entries	1.09 ± 0.085	1.09 ± 0.1	0.972 ± 0.12	1.03 ± 0.11	0.951 ± 0.096	0.949 ± 0.062	0.912 ± 0.059	0.998 ± 0.12
GEMIN6 (UniProt Q8WXD5)	1.05 ± 0.048	1.06 ± 0.064	1.2 ± 0.065	1.12 ± 0.14	1.17 ± 0.067	1.17 ± 0.075	1.21 ± 0.14	1.24 ± 0.12
UniProt Q96EP0 and related entries	1.08 ± 0.086	0.98 ± 0.016	1 ± 0.12	0.993 ± 0.13	0.99 ± 0.13	0.94 ± 0.07	0.994 ± 0.069	0.957 ± 0.12
UniProt Q92608 and related entries	1.08 ± 0.049	1.14 ± 0.11	1.05 ± 0.06	1.14 ± 0.12	1.14 ± 0.096	1.16 ± 0.1	1.11 ± 0.056	1.09 ± 0.062
COG3 (UniProt Q96JB2)	1.03 ± 0.052	1.07 ± 0.04	1.036 ± 0.0053	1.04 ± 0.07	1.08 ± 0.088	1.06 ± 0.075	1.06 ± 0.057	1.05 ± 0.056
EMG1 (UniProt Q92979)	0.991 ± 0.026	0.978 ± 0.038	0.9176 ± 0.0086	0.969 ± 0.074	1.07 ± 0.035	1.06 ± 0.024	1.04 ± 0.093	1.1 ± 0.028
EXOSC8 (UniProt Q96B26)	1.047 ± 0.0092	1.052 ± 0.0058	1.04 ± 0.024	1.13 ± 0.048	1.17 ± 0.089	1.23 ± 0.088	1.23 ± 0.1	1.24 ± 0.059
UniProt Q96HA7 and related entries	1.08 ± 0.18	1.07 ± 0.065	1.07 ± 0.093	1.12 ± 0.17	1.19 ± 0.2	1.14 ± 0.1	1.18 ± 0.18	1.18 ± 0.081
UniProt Q96AQ6 and related entries	0.977 ± 0.073	0.935 ± 0.11	0.945 ± 0.056	0.961 ± 0.096	0.997 ± 0.048	0.968 ± 0.098	0.996 ± 0.061	1.02 ± 0.12
UniProt Q96AG3 and related entries	1.02 ± 0.015	0.987 ± 0.034	1 ± 0.053	1.01 ± 0.02	1.05 ± 0.028	1.03 ± 0.076	1.08 ± 0.018	1.04 ± 0.11
CHAC2 (UniProt Q8WUX2)	0.895 ± 0.065	0.909 ± 0.043	0.855 ± 0.018	0.874 ± 0.0097	0.831 ± 0.041	0.819 ± 0.029	0.797 ± 0.072	0.808 ± 0.045
UniProt Q96EY5 and related entries	0.994 ± 0.021	1 ± 0.023	0.966 ± 0.03	0.993 ± 0.018	0.96 ± 0.035	0.948 ± 0.036	0.967 ± 0.036	0.97 ± 0.07
DUS3L (UniProt Q96G46)	0.946 ± 0.017	0.973 ± 0.027	0.957 ± 0.049	0.947 ± 0.049	0.922 ± 0.043	0.926 ± 0.051	0.921 ± 0.026	0.933 ± 0.029
C15orf40 (UniProt Q8WUR7)	1.02 ± 0.1	1.02 ± 0.084	1.03 ± 0.034	1.05 ± 0.12	1.04 ± 0.13	1.01 ± 0.097	1.11 ± 0.061	1.17 ± 0.12
UniProt Q8WVM7 and related entries	1.05 ± 0.04	1.08 ± 0.07	1.04 ± 0.014	1.09 ± 0.064	1.04 ± 0.081	1.03 ± 0.068	1.01 ± 0.073	0.99 ± 0.046
UniProt Q969X5 and related entries	1 ± 0.037	1.02 ± 0.044	0.894 ± 0.049	0.899 ± 0.05	0.895 ± 0.033	0.912 ± 0.032	0.864 ± 0.074	0.823 ± 0.05

Some values from the list.
NP40-soluble protein abundance (concentration: 2mM) with COG3 (UniProt Q96JB2) is entered as 1.04 ± 0.07
NP40-soluble protein abundance (concentration: 0.1mM) with GEMIN6 (UniProt Q8WXD5) is entered as 1.05 ± 0.048
